Test results as given in article PMC7819943, “Rice protein-binding microarrays: a tool to detect cis-acting elements near promoter regions in rice”.
The list shows a part of the results.

Biological target: T1, OsSMF1 (Oryza sativa, UniProt Q6ZLB0 1-436)
T1 sequence: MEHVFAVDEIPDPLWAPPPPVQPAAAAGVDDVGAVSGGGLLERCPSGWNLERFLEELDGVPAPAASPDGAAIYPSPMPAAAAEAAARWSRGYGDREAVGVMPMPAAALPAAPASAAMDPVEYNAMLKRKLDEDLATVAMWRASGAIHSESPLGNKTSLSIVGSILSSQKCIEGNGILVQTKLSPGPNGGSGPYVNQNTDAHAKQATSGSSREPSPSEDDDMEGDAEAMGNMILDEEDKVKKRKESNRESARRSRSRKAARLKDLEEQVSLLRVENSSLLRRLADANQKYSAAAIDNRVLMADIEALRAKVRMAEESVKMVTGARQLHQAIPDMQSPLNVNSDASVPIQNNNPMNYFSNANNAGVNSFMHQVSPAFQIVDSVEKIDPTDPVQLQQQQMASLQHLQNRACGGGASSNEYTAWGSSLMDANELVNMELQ
Assay: protein-binding microarray (RPBM); PBS, 2% BSA, 51.3 ng/ul salmon testes DNA, 50 uM zinc acetate, 200 nM TF, 25 C, 1 h; high values mean tight binding
Conditions: protein: recombinant; tags: N-terminal polyhistidine and DsRed monomer fusion (pET32a); chain copies: 2; label: CyDye5-dUTP incorporated in the synthesized complementary strand; 3' TTTTT single-stranded linker to array surface; dsDNA, one strand shown
Method in brief: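 A custom Agilent array was converted to double-stranded form by primer extension with Cy5-dUTP and blocked with 2% BSA. Protein at 200 nM in PBS with 2% BSA, salmon testes DNA and 50 µM zinc acetate was applied for 1 h at 25 °C, followed by washing. The proteins were polyhistidine–DsRed N-terminal fusions of transcription factors, expressed in E. coli BL21-CodonPlus and Ni–NTA-purified. The binding signal is per-feature fluorescence intensity (arbitrary units) from an Axon 4000B scanner.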

Question: How did the binding signal turn out when “CCGTATTATTTAATTCATTCAAAGTACACGTACGAGAAAACGGAGTCACCTAGTGCAG” was run?
Answer: 3710 fluorescence intensity (a.u.)

Question: For “GCTGGCTACTACTACTACTTGCACTCCACGCCCTCATCCCCGGAGTCACCTAGTGCAG”, which binding signal is on record?
Answer: 3150 fluorescence intensity (a.u.)

Question: “CTCAACAGTATGTTCTTAATTCTGATAACGTGGCTAGTGTCGGAGTCACCTAGTGCAG” was tested. Which binding signal did it give?
Answer: 4780 fluorescence intensity (a.u.)

Question: With “TCTCTGCAATTGTCGATCTTTATCACGCGCTCCACCCTATCGGAGTCACCTAGTGCAG” as the sequence, how does the binding signal read?
Answer: 4260 fluorescence intensity (a.u.)

Question: How did the binding signal turn out when “CCGAACCGGGACTAGTTTGACTCAACACGTGGGGTCAAACCGGAGTCACCTAGTGCAG” was run?
Answer: 4600 fluorescence intensity (a.u.)

Question: With “GATCGTACATGTTCACATAAACACCCACGACACTACCCTACGGAGTCACCTAGTGCAG” as the sequence, how does the binding signal read?
Answer: 18400 fluorescence intensity (a.u.)

Question: “CCTTGGCCTCGAACTCTTCAGCCGCTGACGGCATCCTTACCGGAGTCACCTAGTGCAG” was tested. Which binding signal did it give?
Answer: 3550 fluorescence intensity (a.u.)

Question: With “TCATTCCGTCAAGGGCTCGCCGTCTCTCAGCACCGGCGTACGGAGTCACCTAGTGCAG” as the sequence, how does the binding signal read?
Answer: 38500 fluorescence intensity (a.u.)

Question: For “CTCTAGAAATCACTGTTGCCAAATCAGCTGATCGGTCTGCCGGAGTCACCTAGTGCAG”, which binding signal is on record?
Answer: 4040 fluorescence intensity (a.u.)

Question: For “CTTGGCAAAGATAATCCTATGTCAGCAAAGCTGCAAGTTCCGGAGTCACCTAGTGCAG”, which binding signal is on record?
Answer: 6070 fluorescence intensity (a.u.)

Question: For “AGAACATATATACTGCATCATCGTTTGCTCTTTAACTTATCGGAGTCACCTAGTGCAG”, which binding signal is on record?
Answer: 3220 fluorescence intensity (a.u.)

Question: “GGAGGAGACGTCATGGTAGATGAGTGTTGCATATCCCGTTCGGAGTCACCTAGTGCAG” was tested. Which binding signal did it give?
Answer: 3920 fluorescence intensity (a.u.)

Question: “ACCAGGCTGACCGGCCGTCTCGTGGCAAATTGGGCCGAGTCGGAGTCACCTAGTGCAG” was tested. Which binding signal did it give?
Answer: 3400 fluorescence intensity (a.u.)

Question: With “AGCTCGACGGCGCCGCCCGAACCTTGCCAGGCGTGGATCTCGGAGTCACCTAGTGCAG” as the sequence, how does the binding signal read?
Answer: 3250 fluorescence intensity (a.u.)

Question: How did the binding signal turn out when “ATACAATACCCGATGTGACACGCCAAAACTTCATACTCTTCGGAGTCACCTAGTGCAG” was run?
Answer: 26200 fluorescence intensity (a.u.)

Question: With “TCCATGAGTCAAGATGAAGCCAAGAAAATCATCAGCTGATCGGAGTCACCTAGTGCAG” as the sequence, how does the binding signal read?
Answer: 3240 fluorescence intensity (a.u.)

Question: With “ATCGACCCTATTTGCGAGATTTGATAGTGTGGCATCCTTTCGGAGTCACCTAGTGCAG” as the sequence, how does the binding signal read?
Answer: 3320 fluorescence intensity (a.u.)

Question: “GGATTACTACGGCGGCCATGGCGCCGACGGTTCAGCGTCCCGGAGTCACCTAGTGCAG” was tested. Which binding signal did it give?
Answer: 22000 fluorescence intensity (a.u.)

Question: Which binding signal does the source give for “CACCTCCCCTTCCCATCCCAACCGGCCAACCCTCCCCACCCGGAGTCACCTAGTGCAG” here?
Answer: 13900 fluorescence intensity (a.u.)

Question: Which binding signal does the source give for “CCCTCGTCCAGGCCCGCTGGAAGTTCGGTGAGTCAGAAGTCGGAGTCACCTAGTGCAG” here?
Answer: 6440 fluorescence intensity (a.u.)

Question: How did the binding signal turn out when “CAAATTCGAACTTACGTCATCATCATCCATCCACAGACCTCGGAGTCACCTAGTGCAG” was run?
Answer: 12600 fluorescence intensity (a.u.)

Question: With “ACATTTATACTCTAAGGGTTAAAACTGGAGACGGAGGAAGCGGAGTCACCTAGTGCAG” as the sequence, how does the binding signal read?
Answer: 29100 fluorescence intensity (a.u.)

Question: Which binding signal does the source give for “CAGCTGGGAGCTCGGAGTTCTCCAGTCAGGTGGAGACACGCGGAGTCACCTAGTGCAG” here?
Answer: 3370 fluorescence intensity (a.u.)
